The other results are listed elsewhere or left out. Most entries show no effect beyond the scatter of the controls.
compound: CN[C@@H]1C[C@H]2O[C@@](C)([C@@H]1OC)n1c3ccccc3c3c4c(c5c6ccccc6n2c5c31)C(=O)NC4 [staurosporine]; experiment: log2 fold change of tryptic peptide abundance, ligand vs vehicle (limited proteolysis) (log2 ratio); higher = more trypsin-susceptible (destabilized); conditions: ligand concentration: 20 uM; sample: K562 cleared lysate; digestion: 4 min, 22 C (HT-PELSA RT4min, Orbitrap Astral)

Chains of the proteins cited; added tags and fusions are not shown. Lines headed by an entry give the natural chain unless they say otherwise; changes in a name come on top.
UniProt Q9Y2G2: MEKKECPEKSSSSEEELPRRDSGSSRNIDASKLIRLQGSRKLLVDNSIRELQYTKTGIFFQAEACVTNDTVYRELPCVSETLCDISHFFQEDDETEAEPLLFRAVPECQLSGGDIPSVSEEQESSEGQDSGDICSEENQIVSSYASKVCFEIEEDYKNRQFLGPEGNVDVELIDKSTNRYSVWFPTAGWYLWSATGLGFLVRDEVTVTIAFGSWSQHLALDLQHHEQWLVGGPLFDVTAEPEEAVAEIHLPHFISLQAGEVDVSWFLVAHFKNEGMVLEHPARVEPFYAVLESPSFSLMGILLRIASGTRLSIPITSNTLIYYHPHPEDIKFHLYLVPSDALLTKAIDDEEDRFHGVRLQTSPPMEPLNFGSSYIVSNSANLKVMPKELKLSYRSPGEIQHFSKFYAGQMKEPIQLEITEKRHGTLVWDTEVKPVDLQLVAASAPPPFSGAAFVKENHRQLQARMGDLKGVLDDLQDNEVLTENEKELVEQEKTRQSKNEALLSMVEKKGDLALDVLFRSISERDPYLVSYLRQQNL
UniProt Q9ULP9: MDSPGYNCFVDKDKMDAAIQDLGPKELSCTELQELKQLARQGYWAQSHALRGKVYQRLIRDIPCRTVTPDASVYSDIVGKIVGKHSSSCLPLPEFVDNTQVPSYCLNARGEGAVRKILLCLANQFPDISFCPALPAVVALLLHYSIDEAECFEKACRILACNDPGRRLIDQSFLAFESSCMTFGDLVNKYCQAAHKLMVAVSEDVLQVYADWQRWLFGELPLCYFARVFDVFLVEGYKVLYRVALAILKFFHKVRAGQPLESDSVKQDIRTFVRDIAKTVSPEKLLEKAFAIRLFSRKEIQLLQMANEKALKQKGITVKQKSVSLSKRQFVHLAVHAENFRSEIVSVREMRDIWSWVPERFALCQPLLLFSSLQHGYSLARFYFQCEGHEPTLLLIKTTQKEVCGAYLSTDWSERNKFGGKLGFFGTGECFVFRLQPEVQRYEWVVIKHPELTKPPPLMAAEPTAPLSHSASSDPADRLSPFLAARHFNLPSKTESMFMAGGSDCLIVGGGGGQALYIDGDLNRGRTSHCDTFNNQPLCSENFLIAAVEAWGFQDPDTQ
UniProt Q9UL25: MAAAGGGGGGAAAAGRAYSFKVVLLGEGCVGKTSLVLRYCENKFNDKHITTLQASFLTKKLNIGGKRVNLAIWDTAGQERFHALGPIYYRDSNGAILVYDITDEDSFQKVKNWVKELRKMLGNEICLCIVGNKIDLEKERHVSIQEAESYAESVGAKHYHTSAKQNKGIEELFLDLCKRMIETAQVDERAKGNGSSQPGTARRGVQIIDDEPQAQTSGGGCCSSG
UniProt Q9UQN3, whole entry: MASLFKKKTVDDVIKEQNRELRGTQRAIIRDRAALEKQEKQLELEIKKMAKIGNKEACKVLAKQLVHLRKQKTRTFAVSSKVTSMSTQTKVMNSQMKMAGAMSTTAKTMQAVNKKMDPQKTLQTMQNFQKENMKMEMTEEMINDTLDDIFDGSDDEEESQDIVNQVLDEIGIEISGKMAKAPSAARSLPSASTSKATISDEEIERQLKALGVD
UniProt Q9UPW6: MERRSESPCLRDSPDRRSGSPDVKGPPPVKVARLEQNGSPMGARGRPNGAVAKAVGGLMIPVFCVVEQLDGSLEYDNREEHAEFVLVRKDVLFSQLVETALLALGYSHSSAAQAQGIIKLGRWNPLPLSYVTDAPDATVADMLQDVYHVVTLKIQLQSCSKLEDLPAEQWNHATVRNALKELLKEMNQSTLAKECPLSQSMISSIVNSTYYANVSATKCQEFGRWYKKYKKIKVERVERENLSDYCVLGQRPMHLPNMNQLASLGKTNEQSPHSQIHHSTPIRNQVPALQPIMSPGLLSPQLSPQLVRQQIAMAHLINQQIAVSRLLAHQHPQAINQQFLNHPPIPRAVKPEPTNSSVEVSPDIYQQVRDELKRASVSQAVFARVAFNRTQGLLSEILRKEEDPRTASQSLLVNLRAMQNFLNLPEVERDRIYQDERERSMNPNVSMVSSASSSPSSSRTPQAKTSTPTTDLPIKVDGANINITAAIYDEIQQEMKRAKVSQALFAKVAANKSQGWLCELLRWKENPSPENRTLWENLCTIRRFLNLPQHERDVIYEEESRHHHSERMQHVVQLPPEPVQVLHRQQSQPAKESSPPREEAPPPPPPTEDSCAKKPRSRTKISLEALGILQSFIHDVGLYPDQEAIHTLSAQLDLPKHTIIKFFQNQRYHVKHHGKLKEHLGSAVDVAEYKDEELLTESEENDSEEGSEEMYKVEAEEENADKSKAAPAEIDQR
UniProt Q9UPR3: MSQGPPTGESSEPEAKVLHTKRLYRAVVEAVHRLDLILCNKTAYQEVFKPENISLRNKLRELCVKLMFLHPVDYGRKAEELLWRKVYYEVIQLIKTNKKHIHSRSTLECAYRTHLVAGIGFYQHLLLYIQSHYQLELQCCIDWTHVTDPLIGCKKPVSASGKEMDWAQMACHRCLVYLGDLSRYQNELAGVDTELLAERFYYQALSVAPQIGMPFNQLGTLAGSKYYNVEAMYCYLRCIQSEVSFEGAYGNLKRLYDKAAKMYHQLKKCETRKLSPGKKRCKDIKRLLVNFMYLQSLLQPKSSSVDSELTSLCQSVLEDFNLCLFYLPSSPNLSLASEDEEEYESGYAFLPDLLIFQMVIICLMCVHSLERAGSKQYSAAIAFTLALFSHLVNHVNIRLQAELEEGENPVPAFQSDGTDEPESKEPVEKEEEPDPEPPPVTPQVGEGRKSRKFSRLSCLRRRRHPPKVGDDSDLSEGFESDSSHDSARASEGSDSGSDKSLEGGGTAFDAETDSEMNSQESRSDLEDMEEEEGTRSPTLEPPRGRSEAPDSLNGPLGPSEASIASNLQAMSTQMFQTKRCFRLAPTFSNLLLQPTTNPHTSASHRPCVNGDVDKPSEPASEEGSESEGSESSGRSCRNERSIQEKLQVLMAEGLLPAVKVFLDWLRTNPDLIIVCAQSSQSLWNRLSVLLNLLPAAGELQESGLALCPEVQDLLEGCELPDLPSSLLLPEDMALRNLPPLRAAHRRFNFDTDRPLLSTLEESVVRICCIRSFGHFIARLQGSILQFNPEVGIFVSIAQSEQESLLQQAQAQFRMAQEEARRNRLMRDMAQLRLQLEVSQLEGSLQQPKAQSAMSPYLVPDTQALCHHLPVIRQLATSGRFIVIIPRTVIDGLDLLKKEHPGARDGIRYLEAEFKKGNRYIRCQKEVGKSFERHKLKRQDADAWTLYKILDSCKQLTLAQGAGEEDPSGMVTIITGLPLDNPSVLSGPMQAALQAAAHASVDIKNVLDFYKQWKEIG
UniProt Q9UKT4: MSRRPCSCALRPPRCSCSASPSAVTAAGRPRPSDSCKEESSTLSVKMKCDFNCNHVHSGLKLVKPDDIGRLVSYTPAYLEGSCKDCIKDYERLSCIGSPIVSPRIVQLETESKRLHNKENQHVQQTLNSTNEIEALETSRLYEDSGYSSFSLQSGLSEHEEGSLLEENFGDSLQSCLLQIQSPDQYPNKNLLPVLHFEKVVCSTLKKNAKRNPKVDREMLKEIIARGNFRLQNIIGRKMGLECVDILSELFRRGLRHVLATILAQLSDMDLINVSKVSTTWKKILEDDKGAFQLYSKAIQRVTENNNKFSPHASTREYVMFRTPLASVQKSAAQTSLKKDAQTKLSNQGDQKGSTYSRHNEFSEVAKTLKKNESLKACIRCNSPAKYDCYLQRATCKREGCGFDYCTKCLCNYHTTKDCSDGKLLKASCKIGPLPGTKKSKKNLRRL
UniProt Q9ULZ3, whole entry: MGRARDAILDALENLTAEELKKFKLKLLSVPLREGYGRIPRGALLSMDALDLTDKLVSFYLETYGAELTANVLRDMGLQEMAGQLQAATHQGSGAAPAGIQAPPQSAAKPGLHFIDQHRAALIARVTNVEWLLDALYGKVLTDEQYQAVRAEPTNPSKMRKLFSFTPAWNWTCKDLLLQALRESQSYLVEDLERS
UniProt Q9UMS4: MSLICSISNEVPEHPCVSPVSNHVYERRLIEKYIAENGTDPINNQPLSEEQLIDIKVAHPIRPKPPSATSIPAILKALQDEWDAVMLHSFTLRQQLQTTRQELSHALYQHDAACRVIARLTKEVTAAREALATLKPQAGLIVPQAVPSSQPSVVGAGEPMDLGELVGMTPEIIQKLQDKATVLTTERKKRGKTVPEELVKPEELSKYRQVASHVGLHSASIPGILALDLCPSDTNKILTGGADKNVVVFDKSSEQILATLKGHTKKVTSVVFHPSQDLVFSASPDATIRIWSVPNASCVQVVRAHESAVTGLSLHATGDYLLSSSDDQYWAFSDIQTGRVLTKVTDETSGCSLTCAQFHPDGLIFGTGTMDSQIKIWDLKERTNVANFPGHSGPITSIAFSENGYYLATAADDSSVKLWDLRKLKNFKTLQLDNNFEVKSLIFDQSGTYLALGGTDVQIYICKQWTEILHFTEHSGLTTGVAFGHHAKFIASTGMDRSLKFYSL
UniProt Q9UQF2: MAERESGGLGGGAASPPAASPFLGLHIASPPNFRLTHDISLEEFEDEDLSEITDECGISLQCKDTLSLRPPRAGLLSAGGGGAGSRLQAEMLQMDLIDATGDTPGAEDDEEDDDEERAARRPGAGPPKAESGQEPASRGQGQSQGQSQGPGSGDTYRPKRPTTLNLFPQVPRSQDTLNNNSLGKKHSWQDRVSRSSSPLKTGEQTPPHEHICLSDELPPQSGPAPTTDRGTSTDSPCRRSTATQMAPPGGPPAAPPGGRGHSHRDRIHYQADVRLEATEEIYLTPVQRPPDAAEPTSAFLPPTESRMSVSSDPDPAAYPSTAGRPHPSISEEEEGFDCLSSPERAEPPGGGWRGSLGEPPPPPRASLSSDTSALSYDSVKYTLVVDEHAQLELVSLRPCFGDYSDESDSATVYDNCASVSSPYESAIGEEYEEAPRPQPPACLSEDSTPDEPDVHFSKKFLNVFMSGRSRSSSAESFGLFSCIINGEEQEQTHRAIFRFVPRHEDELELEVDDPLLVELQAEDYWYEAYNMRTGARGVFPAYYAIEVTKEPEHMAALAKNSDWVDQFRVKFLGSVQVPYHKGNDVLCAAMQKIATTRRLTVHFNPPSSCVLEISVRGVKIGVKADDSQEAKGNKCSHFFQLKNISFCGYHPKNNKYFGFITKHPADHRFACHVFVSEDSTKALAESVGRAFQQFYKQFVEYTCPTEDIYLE
UniProt Q9UNS1: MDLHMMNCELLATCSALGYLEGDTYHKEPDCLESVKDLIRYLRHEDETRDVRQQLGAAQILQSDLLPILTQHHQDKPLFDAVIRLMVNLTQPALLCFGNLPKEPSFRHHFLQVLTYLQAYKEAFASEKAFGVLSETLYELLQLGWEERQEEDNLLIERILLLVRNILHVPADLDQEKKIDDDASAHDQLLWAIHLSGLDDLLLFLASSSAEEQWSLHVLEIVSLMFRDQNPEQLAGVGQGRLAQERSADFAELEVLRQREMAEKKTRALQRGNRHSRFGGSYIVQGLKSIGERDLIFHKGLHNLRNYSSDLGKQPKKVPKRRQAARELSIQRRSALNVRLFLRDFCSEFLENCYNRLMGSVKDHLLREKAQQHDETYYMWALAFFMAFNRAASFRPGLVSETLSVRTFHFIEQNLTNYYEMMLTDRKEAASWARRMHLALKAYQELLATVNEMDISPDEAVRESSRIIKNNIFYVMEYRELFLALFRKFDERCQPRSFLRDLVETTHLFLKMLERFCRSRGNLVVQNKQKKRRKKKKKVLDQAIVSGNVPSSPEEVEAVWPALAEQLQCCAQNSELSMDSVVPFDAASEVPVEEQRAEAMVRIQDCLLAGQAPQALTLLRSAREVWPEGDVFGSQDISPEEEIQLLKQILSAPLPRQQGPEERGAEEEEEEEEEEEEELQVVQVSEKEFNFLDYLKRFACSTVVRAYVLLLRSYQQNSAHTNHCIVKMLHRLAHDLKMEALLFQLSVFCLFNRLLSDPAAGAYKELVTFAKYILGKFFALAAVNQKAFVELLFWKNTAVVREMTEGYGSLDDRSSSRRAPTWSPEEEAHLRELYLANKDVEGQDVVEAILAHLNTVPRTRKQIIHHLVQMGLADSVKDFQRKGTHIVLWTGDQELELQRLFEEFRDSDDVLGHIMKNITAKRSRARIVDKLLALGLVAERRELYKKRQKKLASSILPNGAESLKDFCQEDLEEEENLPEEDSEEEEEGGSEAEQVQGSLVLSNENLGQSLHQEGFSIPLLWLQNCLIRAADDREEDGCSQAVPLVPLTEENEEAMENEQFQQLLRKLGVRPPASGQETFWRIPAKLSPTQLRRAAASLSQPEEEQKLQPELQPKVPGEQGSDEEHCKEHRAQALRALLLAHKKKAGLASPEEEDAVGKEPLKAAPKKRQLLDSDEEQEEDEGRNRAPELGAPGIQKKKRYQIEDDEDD
UniProt Q9Y255: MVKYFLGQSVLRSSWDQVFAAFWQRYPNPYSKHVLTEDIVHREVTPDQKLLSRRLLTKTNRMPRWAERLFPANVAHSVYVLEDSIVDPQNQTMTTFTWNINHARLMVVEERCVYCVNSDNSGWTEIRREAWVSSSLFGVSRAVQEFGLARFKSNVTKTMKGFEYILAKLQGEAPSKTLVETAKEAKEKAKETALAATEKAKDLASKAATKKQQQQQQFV

Target	log2 fold change
SNX12 (peptide sequence: NYVPGKVRQ, peptide start residue: 154) (UniProt Q9UMY4)	0.59
WBP11 (peptide sequence: DNGERDNNEEKK, peptide start residue: 292) (UniProt Q9Y2W2)	-0.601
NCKAP1 (peptide sequence: TSFDKPDQMAALFKR, peptide start residue: 882) (UniProt Q9Y2A7)	0.327
CARD8 (peptide sequence: ECPEKSSSSEEELPR, peptide start residue: 5) (UniProt Q9Y2G2)	-0.66
TBC1D24 (peptide sequence: MDAAIQDLGPK, peptide start residue: 15) (UniProt Q9ULP9)	0.495
PLAA (peptide sequence: ELSHATIDSK, peptide start residue: 316) (UniProt Q9Y263)	0.76
RAB21 (peptide sequence: AKGNGSSQPGTAR, peptide start residue: 190) (UniProt Q9UL25)	-0.0279
MRPS17 (peptide sequence: LVLDPYLLK, peptide start residue: 33) (UniProt Q9Y2R5)	0.137
INPP5F (peptide sequence: DHYILQQGER, peptide start residue: 8) (UniProt Q9Y2H2)	0.258
SLC39A10 (peptide sequence: NNAIISLR, peptide start residue: 318) (UniProt Q9ULF5)	-0.246
CHMP2B (peptide sequence: TMQAVNKK, peptide start residue: 108) (UniProt Q9UQN3)	0.166
SATB2 (peptide sequence: MQHVVQLPPEPVQVLHR, peptide start residue: 568) (UniProt Q9UPW6)	0.213
UniProt Q9ULJ3 (peptide sequence: DSSVVYAK, peptide start residue: 211)	-0.333
FARSA (peptide sequence: LLAEVTLK, peptide start residue: 164) (UniProt Q9Y285)	-0.216
CFL2 (peptide sequence: ESKKEDLVFIFWAPESAPLK, peptide start residue: 93) (UniProt Q9Y281)	0.115
STAP1 (peptide sequence: NYSITIR, peptide start residue: 210) (UniProt Q9ULZ2)	-0.0587
NIP7 (peptide sequence: FRLHVTALDYLAPYAK, peptide start residue: 79) (UniProt Q9Y221)	-1.19
PPT2 (peptide sequence: WLFPTSMR, peptide start residue: 151) (UniProt Q9UMR5)	-0.085

7 entries from above, bar-delimited:
Target | log2 fold change
SLC39A10 (peptide sequence: NNAIISLR, peptide start residue: 318) (UniProt Q9ULF5) | -0.246
CHMP2B (peptide sequence: TMQAVNKK, peptide start residue: 108) (UniProt Q9UQN3) | 0.166
SATB2 (peptide sequence: MQHVVQLPPEPVQVLHR, peptide start residue: 568) (UniProt Q9UPW6) | 0.213
UniProt Q9ULJ3 (peptide sequence: DSSVVYAK, peptide start residue: 211) | -0.333
FARSA (peptide sequence: LLAEVTLK, peptide start residue: 164) (UniProt Q9Y285) | -0.216
CFL2 (peptide sequence: ESKKEDLVFIFWAPESAPLK, peptide start residue: 93) (UniProt Q9Y281) | 0.115
STAP1 (peptide sequence: NYSITIR, peptide start residue: 210) (UniProt Q9ULZ2) | -0.0587

(list continues)

Target	log2 fold change
LUC7L2 (peptide sequence: VMDEVEK, peptide start residue: 155) (UniProt Q9Y383)	-0.356
SMG5 (peptide sequence: STLECAYR, peptide start residue: 105) (UniProt Q9UPR3)	-0.398
FBXO5 (peptide sequence: EGCGFDYCTKCLCNYHTTK, peptide start residue: 399) (UniProt Q9UKT4)	-1.3
STARD10 (peptide sequence: LAASTEPQGPRPVLGR, peptide start residue: 4) (UniProt Q9Y365)	0.265
PACSIN3 (peptide sequence: ADSAVSQEQLR, peptide start residue: 176) (UniProt Q9UKS6)	0.208
PYCARD (peptide sequence: DLLLQALR, peptide start residue: 175) (UniProt Q9ULZ3)	0.0491
PRPF19 (peptide sequence: KVTSVVFHPSQDLVFSASPDATIR, peptide start residue: 266) (UniProt Q9UMS4)	-0.219
UniProt Q9UQF2 (peptide sequence: GSLGEPPPPPR, peptide start residue: 354)	0.2
UniProt Q9UL18 (peptide sequence: LFCADKNER, peptide start residue: 713)	0.463
GNE (peptide sequence: ILLAGCPSYDKLLSAK, peptide start residue: 178) (UniProt Q9Y223)	-0.492
UniProt Q9Y2S6 (peptide sequence: AAGKGPLATGGIKK, peptide start residue: 47)	0.194
G3BP2 (peptide sequence: FYVHNDMFR, peptide start residue: 124) (UniProt Q9UN86)	-0.52
TIMELESS (peptide sequence: KQIIHHLVQMGLADSVK, peptide start residue: 861) (UniProt Q9UNS1)	0.567
SNX6 (peptide sequence: DVDDFFEHER, peptide start residue: 205) (UniProt Q9UNH7)	-0.153
PRELID1 (peptide sequence: AKETALAATEK, peptide start residue: 189) (UniProt Q9Y255)	0.481
UniProt Q9Y2E4 (peptide sequence: TCVVVAEERPR, peptide start residue: 1281)	-0.0303
RAB23 (peptide sequence: TIGVDFLER, peptide start residue: 41) (UniProt Q9ULC3)	0.203
UniProt Q9Y3B4 (peptide sequence: EKYGINTDPPK, peptide start residue: 115)	0.215

From the supplement of paper PMC12819154, “High-throughput peptide-centric local stability assay extends protein–ligand identification to membrane proteins, tissues and bacteria” (Nature Structural & Molecular Biology, 2025)
